For 36 compounds, drug sensitivity score results are on record in the supplement of paper PMC12593923.

SMILES strings stand for the structures. Structures can show the parent of a compound that is named as a salt. Several reference drugs read as weak here; read low effects with care.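 All three lines are high-grade serous ovarian cancer cells differing in chemosensitivity, with OVCAR3 described as the chemosensitive one. Toxicity was scaled between DMSO vehicle wells and fully lysed wells, the score derives from a fitted multi-dose response curve, and the authors counted a score above 5 as drug sensitivity.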

What all share (assay): drug sensitivity score (DSS2, cytotoxicity, CellTox Green); higher = more cytotoxic / more sensitive; extreme values may be limits of the assay
Holding throughout (conditions): 72 h; doses 0.5, 1, 5 µM

In test [1] the test system is OVCAR4.
Test [2] concerns OVCAR3.
Test [3] has as its system Kuramochi.

Regarding `CC(=O)S[C@@H]1CC2=CC(=O)CC[C@]2(C)[C@H]2CC[C@@]3(C)[C@@H](CC[C@@]34CCC(=O)O4)[C@H]12` [Spironolactone], the drug sensitivity score in test [1], in test [2] and in test [3] was 0 DSS each time.

In the case of `O=C(CCCCCCC(=O)Nc1ccccc1)NO` [Vorinostat], the drug sensitivity score in test [1] was found to be 0 DSS; in test [2], 0.7 DSS; in test [3], 0.9 DSS.

As to `CC(=O)O[C@@]12CO[C@@H]1C[C@H](O)[C@@]1(C)C(=O)[C@H](O)C3=C(C)[C@@H](OC(=O)[C@H](O)[C@@H](NC(=O)OC(C)(C)C)c4ccccc4)C[C@@](O)([C@@H](OC(=O)c4ccccc4)[C@H]21)C3(C)C` [Docetaxel (Trihydrate)], the drug sensitivity score in test [1] was found to be 0 DSS; in test [2], 5.2 DSS; in test [3], 4 DSS.

Turning to `CNCCC=C1c2ccccc2CCc2ccccc21` [Nortriptyline (hydrochloride)], the values for the drug sensitivity score in test [1], in test [2] and in test [3] were 0 DSS, 0 DSS and 4 DSS, respectively.

`O=C(O)C(=O)O.[NH-][C@@H]1CCCC[C@H]1[NH-].[Pt+2]` [Oxaliplatin]: the drug sensitivity score in test [1], in test [2] and in test [3] was 0 DSS each time.

Take `C[C@H](CCC(=O)NCCS(=O)(=O)O)[C@H]1CC[C@H]2[C@@H]3CC[C@@H]4C[C@H](O)CC[C@]4(C)[C@H]3C[C@H](O)[C@]12C` [Taurodeoxycholic acid (sodium hydrate)]: the drug sensitivity score in test [1], in test [2] and in test [3] was 0 DSS throughout.

Regarding `COc1ccc(-c2ccc3cc(C(=O)O)ccc3c2)cc1C12CC3CC(CC(C3)C1)C2` [Adapalene], the drug sensitivity score in test [1], in test [2] and in test [3] was 0 DSS throughout.

On to `Nc1nc2[nH]cc(CCc3ccc(C(=O)N[C@@H](CCC(=O)O)C(=O)O)cc3)c2c(=O)[nH]1` [Pemetrexed], for which the drug sensitivity score in test [1], in test [2] and in test [3] was 0 DSS throughout.

For the compound `CN[C@H](CC(C)C)C(=O)N[C@H]1C(=O)N[C@@H](CC(N)=O)C(=O)N[C@H]2C(=O)N[C@H]3C(=O)N[C@H](C(=O)N[C@H](C(=O)O)c4cc(O)cc(O)c4-c4cc3ccc4O)[C@H](O)c3ccc(c(Cl)c3)Oc3cc2cc(c3O[C@@H]2O[C@H](CO)[C@@H](O)[C@H](O)[C@H]2O[C@H]2C[C@](C)(N)[C@H](O)[C@H](C)O2)Oc2ccc(cc2Cl)[C@H]1O` [Vancomycin (hydrochloride)], the drug sensitivity score in test [1], in test [2] and in test [3] was 0 DSS throughout.

On to `Cc1cncc(CN2CCC(=C3c4ccc(Cl)cc4CCc4cccnc43)CC2)c1` [Rupatadine (Fumarate)], for which the drug sensitivity score in test [1], in test [2] and in test [3] was 0 DSS each time.

Turning to `CC(=O)c1c(C)c2cnc(Nc3ccc(N4CCNCC4)cn3)nc2n(C2CCCC2)c1=O` [Palbociclib (isethionate)], the drug sensitivity score in test [1], in test [2] and in test [3] was 0 DSS in each case.

As for `Nc1nnc(-c2cccc(Cl)c2Cl)c(N)n1` [Lamotrigine], the drug sensitivity score in test [1], in test [2] and in test [3] was 0 DSS in each case.

On to `CC(=O)Nc1cccc(-n2c(=O)n(C3CC3)c(=O)c3c(Nc4ccc(I)cc4F)n(C)c(=O)c(C)c32)c1` [Trametinib (DMSO solvate)], for which the drug sensitivity score in test [1], in test [2] and in test [3] was 0 DSS throughout.

With `COc1c(N2CCNC(C)C2)c(F)cc2c(=O)c(C(=O)O)cn(C3CC3)c12` (stereo not drawn) [Gatifloxacin (hydrochloride)], the drug sensitivity score in test [1], in test [2] and in test [3] was 0 DSS in each case.

Consider `COc1ncc(-c2nc3c(n2C(C)C)[C@H](c2ccc(Cl)cc2)N(c2cc(Cl)cn(C)c2=O)C3=O)c(OC)n1` [Siremadlin], for which the drug sensitivity score in test [1], in test [2] and in test [3] was 0 DSS throughout.

As to `CC(=O)N[C@@H](CS)C(=O)O` [Acetylcysteine], the drug sensitivity score in test [1], in test [2] and in test [3] was 0 DSS each time.

Consider `CC(=O)O[C@H]1C[C@H](O[C@H]2[C@@H](O)C[C@H](O[C@H]3[C@@H](O)C[C@H](O[C@H]4CC[C@@]5(C)[C@H](CC[C@@H]6[C@@H]5C[C@@H](O)[C@]5(C)[C@@H](C7=CC(=O)OC7)CC[C@]65O)C4)O[C@@H]3C)O[C@@H]2C)O[C@H](C)[C@H]1O[C@@H]1O[C@H](CO)[C@@H](O)[C@H](O)[C@H]1O` [Lanatoside C], for which the drug sensitivity score is 6.1 DSS in test [1], 2.9 DSS in test [2] and 0.7 DSS in test [3].

Take `CCC(C)(Oc1ccc(C2(c3ccc(OC(C)(CC)C(=O)O)cc3)CCCCC2)cc1)C(=O)O` (stereo not drawn) [Clinofibrate]: the drug sensitivity score in test [1], in test [2] and in test [3] was 0 DSS each time.

`COC(=O)/C=C/C(=O)OC` [Dimethyl fumarate]: the drug sensitivity score was found to be 0 DSS in test [1], 0 DSS in test [2] and 0.1 DSS in test [3].

`COc1ccc2cc3[n+](cc2c1OC)CCc1cc2c(cc1-3)OCO2` [Berberine (chloride)]: the drug sensitivity score in test [1], in test [2] and in test [3] was 0 DSS in each case.

In the case of `CCN(CCO)CCCC(C)Nc1ccnc2cc(Cl)ccc12` (stereo not drawn) [Hydroxychloroquine sulfate], the drug sensitivity score in test [1], in test [2] and in test [3] was 0 DSS in each case.

For the compound `CCCCC1=NC2(CCCC2)C(=O)N1Cc1ccc(-c2ccccc2-c2nnn[nH]2)cc1` [Irbesartan], the drug sensitivity score in test [1], in test [2] and in test [3] was 0 DSS each time.

For `CC[C@H](C)[C@H](NC(=O)[C@H](Cc1ccc(O)cc1)NC(=O)[C@@H](NC(=O)[C@H](CCCNC(=N)N)NC(=O)[C@@H](N)CC(=O)O)C(C)C)C(=O)N[C@@H](Cc1cnc[nH]1)C(=O)N1CCC[C@H]1C(=O)N[C@@H](Cc1ccccc1)C(=O)O` [Angiotensin II human], the drug sensitivity score in test [1], in test [2] and in test [3] was 0 DSS in each case.

Turning to `C[C@H]1CNCCCN1S(=O)(=O)c1cccc2cncc(F)c12` [Ripasudil], the drug sensitivity score in test [1], in test [2] and in test [3] was 0 DSS in each case.

With `CC(C)(C)c1cc(-c2cc(-c3ccc(C(=O)O)cc3)ccc2OCCO)ccc1N1CCCC1` [Trifarotene], the results for the drug sensitivity score in test [1], in test [2] and in test [3] were 0 DSS, 2.8 DSS and 0 DSS, respectively.

As to `NC(=O)CC[C@H](N)C(=O)O` [L-Glutamine], the drug sensitivity score in test [1] was found to be 2.7 DSS; in test [2], 3.3 DSS; in test [3], 0.1 DSS.

In the case of `C[C@]12CC[C@@H]3c4ccc(OC(=O)N(CCCl)CCCl)cc4CC[C@H]3[C@@H]1CC[C@@H]2OP(=O)(O)O` [Estramustine (phosphate sodium)], the drug sensitivity score in test [1], in test [2] and in test [3] was 0 DSS throughout.

Turning to `O=NN(CCCl)C(=O)NCCCl` [Carmustine], the drug sensitivity score in test [1], in test [2] and in test [3] was 0 DSS throughout.

With `NC(=O)c1cccc2cn(-c3ccc([C@@H]4CCCNC4)cc3)nc12` [Niraparib], the drug sensitivity score in test [1], in test [2] and in test [3] was 0 DSS in each case.

Regarding `CCOc1nc2cccc(C(=O)OC(C)OC(=O)OC3CCCCC3)c2n1Cc1ccc(-c2ccccc2-c2nn[nH]n2)cc1` (stereo not drawn) [Candesartan Cilexetil], the drug sensitivity score in test [1], in test [2] and in test [3] was 0 DSS in each case.

In the case of `Cc1nc(Nc2ncc(C(=O)Nc3c(C)cccc3Cl)s2)cc(N2CCN(CCO)CC2)n1` [Dasatinib], the drug sensitivity score in test [1], in test [2] and in test [3] was 0 DSS each time.

In the case of `CC/C(=C(\c1ccccc1)c1ccc(OCCN(C)C)cc1)c1ccccc1` [Tamoxifen (Citrate)], the drug sensitivity score in test [1] was determined as 0.1 DSS; in test [2], 0 DSS; in test [3], 0 DSS.

With `Cc1c(C(=O)Nc2ccc(N3C[C@@H](C)O[C@@H](C)C3)nc2)cccc1-c1ccc(OC(F)(F)F)cc1` [Sonidegib], the drug sensitivity score in test [1], in test [2] and in test [3] was 0 DSS in each case.

With `N[C@@H]1[C@H]2CN(c3nc4c(cc3F)c(=O)c(C(=O)O)cn4-c3ccc(F)cc3F)C[C@@H]12` [Trovafloxacin], the drug sensitivity score in test [1], in test [2] and in test [3] was 0 DSS in each case.

As to `CC(C)c1c(C(=O)Nc2ccccc2)c(-c2ccccc2)c(-c2ccc(F)cc2)n1CC[C@@H](O)C[C@@H](O)CC(=O)O` [Atorvastatin (hemicalcium salt)], the drug sensitivity score in test [1], in test [2] and in test [3] was 0 DSS in each case.

Consider `O=C([O-])CN(CCN(CC(=O)[O-])CC(=O)O)CC(=O)[O-].[Na+].[Na+].[Na+]` [Ethylenediaminetetraacetic acid (trisodium salt)], for which the drug sensitivity score in test [1], in test [2] and in test [3] was 0 DSS throughout.
